In series [1] the target is T1, LvHSF1 (rLvHSF1-GST) (Litopenaeus vannamei) (UniProt X2D760).
T1 sequence (looked up, limits assumed): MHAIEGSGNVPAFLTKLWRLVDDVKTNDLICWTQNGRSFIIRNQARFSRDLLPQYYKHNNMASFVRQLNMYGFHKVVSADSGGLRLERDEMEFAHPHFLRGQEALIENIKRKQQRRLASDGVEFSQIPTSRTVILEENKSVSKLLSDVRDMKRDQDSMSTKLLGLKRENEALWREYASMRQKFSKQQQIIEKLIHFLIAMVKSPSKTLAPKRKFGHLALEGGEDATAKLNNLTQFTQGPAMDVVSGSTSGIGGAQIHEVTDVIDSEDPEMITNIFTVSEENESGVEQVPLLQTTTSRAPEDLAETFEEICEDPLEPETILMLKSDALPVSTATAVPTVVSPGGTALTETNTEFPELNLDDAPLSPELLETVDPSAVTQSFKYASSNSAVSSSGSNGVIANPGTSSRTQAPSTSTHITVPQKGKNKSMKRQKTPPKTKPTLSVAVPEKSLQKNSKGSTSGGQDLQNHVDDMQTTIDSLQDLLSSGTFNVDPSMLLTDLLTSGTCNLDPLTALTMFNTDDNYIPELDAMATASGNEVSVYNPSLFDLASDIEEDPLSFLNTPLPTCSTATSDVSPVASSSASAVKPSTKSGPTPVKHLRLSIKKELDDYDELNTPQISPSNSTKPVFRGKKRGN
Description: competition with a labelled probe. As to conditions: excess unlabeled probe2 reduces shift, EMSA: 10 ug recombinant protein, 20 fmol biotin probe, LightShift Chemiluminescent EMSA kit, 5% native PAGE, pH and temperature not stated. In general terms: A gel shift assay detects complexes by their altered migration in electrophoresis.

Series [2] concerns the target T1, LvHSF1 (rLvHSF1-GST) (Litopenaeus vannamei). Description: EMSA. The note with it: EMSA: 10 ug recombinant protein, 20 fmol biotin probe, LightShift Chemiluminescent EMSA kit, 5% native PAGE, pH and temperature not stated, label: biotin.
The next series relates to GST. Nature of the series: EMSA. As to conditions: EMSA: 10 ug recombinant protein, 20 fmol biotin probe, LightShift Chemiluminescent EMSA kit, 5% native PAGE, pH and temperature not stated.

The exact form of at least one protein or probe is not confirmed. For part of these data: No signal at the amounts used counts as a negative. At least one verdict rests on a figure or table, not on a statement of the authors. For part of these data: Where a protein sequence is shown, tags need not be part of it.

This note sets out measurements from article PMC13086497, “Heat shock factor regulation of antimicrobial peptides expression suggests a conserved defense mechanism induced by febrile temperature in arthropods”.

In the case of “GTTGGGATTTCCATGATGACTTTTCGAGGAATTAGTGGCTGCGTG (double strand) [SWD-Probe2]”, the binding result in series [1] is reported as “binds”.
Consider “GTTGGGATTTCCATGATGGATTGGCTCGCCATTAGTGGCTGCGTG (double strand) [Mut-SWD-Probe2]”, for which the binding result in series [2] is “no binding”.
As for “TACCACTAGGACTTTCTATAGAACCATCTTTGCTTCACTATAACA (double strand) [SWD-Probe1]”, the binding result with GST is listed as “no binding”.
